# Test results: PubChem BioAssay AID2685 (National Center for Advancing Translational Sciences (NCATS), 2010)
# This is one part of the list. The main result of the screen is listed elsewhere. These columns were measured beside it and carry no call. Most of these compounds were active or inconclusive in the main read-out, so they are no random draw. The note in brackets gives the kind of curve behind each potency; many fits are weak.
# Experiment: qHTS Assay for Lipid Storage Modulators in Drosophila S3 Cells;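 on cell number change: cells counted by Cell Tracker Red CMTPX staining in the red channel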
# Settings: BODIPY lipid droplet fluorescence, 18-24 h; for cell number change: measured here: cell count max response, cells fed with added oleic acid
# Outline: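 Drosophila S3 cells loaded with oleic acid (400 uM, as added) and compounds at several concentrations; lipid droplets imaged by 488-nm laser-scanning cytometry, 500–530 nm intensity and object ratio to cell channel. Percent activity normalized to 20 uM Triacsin C.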
# [1] = measured here: cell number channel AC50, cells fed with added oleic acid
# [2] = measured here: lipid fluorescence (Fed channel) AC50, cells fed with added oleic acid
Compound,cell number change [%],AC50 [1],AC50 [2]
CCCc1nn2c(=O)cc(CSCC(=O)Nc3cccc(OC)c3)nc2s1,-0.298,,
CCC(=O)Nc1cccc(-c2nnc(SCC(=O)NCc3ccco3)n2C)c1,6.9,,
CN(C)CCN(C(=O)CN1C(=O)c2ccccc2C1=O)c1nc2cc3c(cc2s1)OCCO3,-45.4,"3.26 µM [falling, full curve]",
CCN(CC(=O)Nc1ccc2c(c1)OCCO2)c1ccc(S(=O)(=O)N2CCOCC2)cn1,4.91,,"0.00461 µM [rising, full curve, poor fit]"
Cc1ccccc1NS(=O)(=O)c1cc(S(C)(=O)=O)ccc1C,83.3,"13 µM [rising, partial curve]",
CC(/C=C/c1ccco1)=N/NC(=O)c1ccc(C)nc1,-11.2,,"4.61 µM [falling, single point]"
Cc1ccc(N(CC(=O)N=Nc2c(O)[nH]c3ccccc23)S(C)(=O)=O)c(C)c1,-0.107,"2.31 µM [falling, partial curve]",
Cc1ccc(S(=O)(=O)N2CCC(C(=O)OCCOc3cccc(C)c3)CC2)cc1,-0.688,,"2.06 µM [falling, partial curve, poor fit]"
N#CCCn1cc(C(=O)Nc2ccccc2Br)c(-c2cc3ccccc3o2)n1,-29.2,,"29.1 µM [falling, single point]"
O=C(NNC(=O)C12CC3CC(CC(O)(C3)C1)C2)c1csc(N2CCOCC2)n1,31.4,"8.2 µM [rising, partial curve, poor fit]",
CC[N+](CC)(CCO)CCCN1C(=O)C2CC=C(Cl)CC2C1=O (stereo not drawn),2.13,,"20.6 µM [rising, single point]"
CC1Cc2ccccc2N1C(=O)c1cccnc1 (stereo not drawn),,"0.0731 µM [falling, full curve, poor fit]","0.116 µM [falling, full curve, poor fit]"
COc1ccccc1N1CCN(CC(=O)N(CC(C)C)c2c(N)n(CC(C)C)c(=O)[nH]c2=O)CC1,-24.1,,"29.1 µM [falling, single point]"
CCCc1cc(=O)[nH]c(SCC(=O)c2cc(C)n(C)c2C)n1,2.61,,"2.91 µM [falling, single point]"
Cc1nc2sccn2c(=O)c1CCN1CCC(=C(c2ccc(F)cc2)c2ccc(F)cc2)CC1,-57.2,"32.6 µM [falling, single point]","5.8 µM [rising, partial curve]"
CSc1ncccc1C(=O)OCC(=O)N(CC(C)C)c1c(N)n(Cc2ccccc2)c(=O)[nH]c1=O,-41,"29.1 µM [falling, single point]",
CCCCCNC(=O)CCCCn1c(=O)[nH]c2cc(OCC)c(OCC)cc2c1=O,-10.7,,"0.58 µM [falling, full curve]"
Cc1ccc(-c2nc(NC(=O)c3ccc(S(=O)(=O)N(CCC#N)CCC#N)cc3)sc2-c2ccccc2)cc1,2.57,,
CCN(CC)S(=O)(=O)c1ccc(C)c(NC(=O)CSc2nc3ccc(C)cc3[nH]2)c1,-83.3,"29.1 µM [falling, partial curve, poor fit]",

Compound,cell number change [%],AC50 [1],AC50 [2]
COc1ccc(C(C#N)Nc2ccccc2OC)cc1 (stereo not drawn),-42.1,"1.64 µM [falling, partial curve, poor fit]","0.00517 µM [falling, full curve, poor fit]"
OCC1CCCCN1C(=S)Nc1cccc(Cl)c1 (stereo not drawn),23.7,"2.91 µM [falling, single point]",
O=C(Cn1nc(-c2ccccc2)ccc1=O)NCC1CCCO1 (stereo not drawn),17.1,,"29.1 µM [rising, single point]"
O=C(Cc1ccccc1F)Nc1nc(-c2cccs2)cs1,-7.75,,"16.4 µM [rising, partial curve]"
CCSC(=O)CCCCCCCCCCCO,-39.5,"25.9 µM [falling, partial curve]","18.4 µM [falling, single point]"
COc1cc(/C=N/n2c(-c3ccccc3)n[nH]c2=S)cc(OC)c1OC,-22.7,,"32.6 µM [falling, single point]"
CC1(C)CC(=O)C/C(=N/Nc2nc3ccccc3s2)C1,-0.977,,"3.26 µM [falling, single point]"
Cc1ccc(S(=O)(=O)N(C)C)cc1NC(=S)N1CCc2ccccc21,34,"0.146 µM [rising, full curve, poor fit]",
COc1ccccc1N1CCN(CCNC(=O)Nc2cccc(C)c2C)CC1,,"0.58 µM [rising, single point]","6.51 µM [rising, single point]"
CN1C(=O)[C@H]2[C@@H](C3CC3)N3C(=O)CN(CC4CC4)C(=O)[C@@]3(C)[C@H]2C1=O,31.4,"14.6 µM [rising, partial curve, poor fit]","2.31 µM [falling, partial curve, poor fit]"
Cc1cccc(N2CCN(CCNC(=O)c3cc4c(s3)CS(=O)(=O)C4)CC2)c1C,50.6,"14.6 µM [rising, single point]",
COCCn1c(=O)[nH]c(=O)c2c1nc(-c1ccc(-c3ccc(Cl)cc3[N+](=O)[O-])o1)n2Cc1ccccc1,-11.9,,"2.06 µM [rising, partial curve]"
CN=C(Nc1cc(C)nn1CCC#N)c1ccc(F)cc1,-13.4,,"0.651 µM [rising, single point]"
COC(=O)c1ccc(CN(C(C)=O)c2ccccc2)o1,-16.5,,
Fc1ccc(Sc2nc(-c3ccccc3)nnc2C(F)(F)F)cc1,-20.8,,"16.4 µM [falling, single point]"
CCCCOc1ccc(C(=O)NCC(=O)N(C)CC(=O)Nc2ccc(N3CCOCC3)cc2)cc1,-50,"0.82 µM [falling, full curve, poor fit]","0.58 µM [falling, single point]"
COc1ccccc1CNC(=O)C(C)c1ccc([N+](=O)[O-])cc1 (stereo not drawn),-35.3,,
O=C(OCc1c(-c2ccccc2)ncc2ccccc12)c1ccc(Br)cc1,,,"29.1 µM [falling, single point]"

# 3 structures from above, sorted by length of the SMILES, ascending:
Compound,cell number change [%],AC50 [1],AC50 [2]
CCCCCNC(=O)CCCCn1c(=O)[nH]c2cc(OCC)c(OCC)cc2c1=O,-10.7,,"0.58 µM [falling, full curve]"
CCCCOc1ccc(C(=O)NCC(=O)N(C)CC(=O)Nc2ccc(N3CCOCC3)cc2)cc1,-50,"0.82 µM [falling, full curve, poor fit]","0.58 µM [falling, single point]"
CN1C(=O)[C@H]2[C@@H](C3CC3)N3C(=O)CN(CC4CC4)C(=O)[C@@]3(C)[C@H]2C1=O,31.4,"14.6 µM [rising, partial curve, poor fit]","2.31 µM [falling, partial curve, poor fit]"
